Experimental findings from patent publication US8445492B2, “Method for inhibiting growth of cancer cells and cell telomere and diseases of cell proliferation by using heteroannelated anthraquinone derivative compounds” (National Defense Medical Center, priority 2008, dated 2013) are described below.

One data set deals with A498. The data set can be described thus: NCI DTP in-vitro dose response, Renal Cancer. Type of data set: cell-based.
The subject of another data set is RXF 393. Briefly: NCI DTP in-vitro dose response, Renal Cancer. Type of data set: cell-based.

Like-named read-outs stand apart in the source and are kept apart here.

With `O=C1c2ccccc2C(=O)c2c1ccc1nccnc21` [TABLE 5-2], the “Mean Optical Densities” value in the data set with NCI-H460 (Log10 Concentration −4.0) is listed as 0.179; in the data set on NCI-H460 (Log10 Concentration −5.0), 0.507; with NCI-H460 (Log10 Concentration −6.0), 1.309; with NCI-H460 (Log10 Concentration −7.0), 1.815; in the data set on NCI-H460 (Log10 Concentration −8.0), 1.869; in the data set on HOP-92 (Log10 Concentration −4.0) it was 0.829. Besides, the “Mean Optical Densities” value is 1.206 with HOP-92 (Log10 Concentration −5.0); 1.231 in the data set on HOP-92 (Log10 Concentration −6.0); 1.260 with HOP-92 (Log10 Concentration −7.0); 1.334 in the data set on HOP-92 (Log10 Concentration −8.0); 0.226 with NCI-H522 (Log10 Concentration −4.0); 0.579 in the data set on NCI-H522 (Log10 Concentration −5.0). The “Mean Optical Densities” value with NCI-H522 (Log10 Concentration −6.0) is 0.906; in the data set with NCI-H522 (Log10 Concentration −7.0), 0.942; in the data set on NCI-H522 (Log10 Concentration −8.0), 0.966; in the data set with NCI-H226 (Log10 Concentration −4.0), 0.769; with NCI-H226 (Log10 Concentration −5.0) it was 1.415; in the data set on NCI-H226 (Log10 Concentration −6.0), 1.497. Besides, the “Mean Optical Densities” value is on record as 1.577 in the data set with NCI-H226 (Log10 Concentration −7.0); 1.631 in the data set on NCI-H226 (Log10 Concentration −8.0); 0.421 with EKVX (Log10 Concentration −4.0); 0.584 in the data set with EKVX (Log10 Concentration −5.0); 0.904 in the data set with EKVX (Log10 Concentration −6.0); 0.960 with EKVX (Log10 Concentration −7.0). Also, the “Mean Optical Densities” value in the data set with EKVX (Log10 Concentration −8.0) was found to be 1.032.

As to `O=C1c2ccccc2C(=O)c2c1ccc1nccnc21` [TABLE 5-7], the “Mean Optical Densities” value in the data set on A498 (A498, Log10 Concentration −4.0) worked out at 0.456; with A498 (A498, Log10 Concentration −5.0), 0.839; in the data set with A498 (A498, Log10 Concentration −6.0), 1.058; with A498 (A498, Log10 Concentration −7.0), 1.034; in the data set on A498 (A498, Log10 Concentration −8.0) it was 1.079; in the data set on RXF 393 (RXF 393, Log10 Concentration −4.0) it was 0.919. The “Mean Optical Densities” value in the data set on RXF 393 (RXF 393, Log10 Concentration −5.0) was 1.355; in the data set with RXF 393 (RXF 393, Log10 Concentration −6.0) it was 1.829; with RXF 393 (RXF 393, Log10 Concentration −7.0), 1.973; in the data set with RXF 393 (RXF 393, Log10 Concentration −8.0), 2.024.
